# Results taken from doi:10.64898/2025.12.17.694357.
# By UniProt entry, the sequences of proteins in these tests, tags left out. Residues count along the entry.
# UniProt P32004, 20-1257: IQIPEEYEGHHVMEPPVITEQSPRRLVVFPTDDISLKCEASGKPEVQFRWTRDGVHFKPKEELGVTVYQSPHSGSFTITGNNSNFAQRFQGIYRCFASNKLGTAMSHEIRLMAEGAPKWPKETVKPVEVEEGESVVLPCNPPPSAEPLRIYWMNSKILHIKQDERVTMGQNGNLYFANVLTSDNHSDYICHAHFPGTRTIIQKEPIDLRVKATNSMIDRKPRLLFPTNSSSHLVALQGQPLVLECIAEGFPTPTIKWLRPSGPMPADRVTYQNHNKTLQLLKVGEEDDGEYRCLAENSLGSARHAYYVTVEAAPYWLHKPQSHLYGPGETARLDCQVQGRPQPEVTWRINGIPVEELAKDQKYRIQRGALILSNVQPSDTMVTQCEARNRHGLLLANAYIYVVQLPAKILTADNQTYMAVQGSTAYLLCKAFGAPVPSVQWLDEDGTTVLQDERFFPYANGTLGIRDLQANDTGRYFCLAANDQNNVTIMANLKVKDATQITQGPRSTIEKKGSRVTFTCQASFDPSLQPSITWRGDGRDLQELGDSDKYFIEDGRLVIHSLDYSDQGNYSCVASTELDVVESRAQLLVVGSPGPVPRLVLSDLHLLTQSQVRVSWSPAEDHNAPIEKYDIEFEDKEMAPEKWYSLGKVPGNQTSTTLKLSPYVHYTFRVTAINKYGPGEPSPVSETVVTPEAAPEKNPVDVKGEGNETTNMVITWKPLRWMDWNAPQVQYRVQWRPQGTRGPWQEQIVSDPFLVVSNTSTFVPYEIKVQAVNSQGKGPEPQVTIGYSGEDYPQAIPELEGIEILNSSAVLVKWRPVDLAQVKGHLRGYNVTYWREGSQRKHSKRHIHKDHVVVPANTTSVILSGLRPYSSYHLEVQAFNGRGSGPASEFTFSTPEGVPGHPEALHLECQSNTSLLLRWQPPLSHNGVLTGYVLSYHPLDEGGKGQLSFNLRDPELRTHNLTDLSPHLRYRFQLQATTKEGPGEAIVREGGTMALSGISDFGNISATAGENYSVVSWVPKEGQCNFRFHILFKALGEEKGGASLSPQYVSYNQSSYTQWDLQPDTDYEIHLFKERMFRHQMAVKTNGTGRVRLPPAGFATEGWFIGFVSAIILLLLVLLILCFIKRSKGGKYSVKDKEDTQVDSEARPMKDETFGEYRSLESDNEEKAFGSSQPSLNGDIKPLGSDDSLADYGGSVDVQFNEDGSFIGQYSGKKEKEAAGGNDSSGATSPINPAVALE
# UniProt Q14974, whole entry: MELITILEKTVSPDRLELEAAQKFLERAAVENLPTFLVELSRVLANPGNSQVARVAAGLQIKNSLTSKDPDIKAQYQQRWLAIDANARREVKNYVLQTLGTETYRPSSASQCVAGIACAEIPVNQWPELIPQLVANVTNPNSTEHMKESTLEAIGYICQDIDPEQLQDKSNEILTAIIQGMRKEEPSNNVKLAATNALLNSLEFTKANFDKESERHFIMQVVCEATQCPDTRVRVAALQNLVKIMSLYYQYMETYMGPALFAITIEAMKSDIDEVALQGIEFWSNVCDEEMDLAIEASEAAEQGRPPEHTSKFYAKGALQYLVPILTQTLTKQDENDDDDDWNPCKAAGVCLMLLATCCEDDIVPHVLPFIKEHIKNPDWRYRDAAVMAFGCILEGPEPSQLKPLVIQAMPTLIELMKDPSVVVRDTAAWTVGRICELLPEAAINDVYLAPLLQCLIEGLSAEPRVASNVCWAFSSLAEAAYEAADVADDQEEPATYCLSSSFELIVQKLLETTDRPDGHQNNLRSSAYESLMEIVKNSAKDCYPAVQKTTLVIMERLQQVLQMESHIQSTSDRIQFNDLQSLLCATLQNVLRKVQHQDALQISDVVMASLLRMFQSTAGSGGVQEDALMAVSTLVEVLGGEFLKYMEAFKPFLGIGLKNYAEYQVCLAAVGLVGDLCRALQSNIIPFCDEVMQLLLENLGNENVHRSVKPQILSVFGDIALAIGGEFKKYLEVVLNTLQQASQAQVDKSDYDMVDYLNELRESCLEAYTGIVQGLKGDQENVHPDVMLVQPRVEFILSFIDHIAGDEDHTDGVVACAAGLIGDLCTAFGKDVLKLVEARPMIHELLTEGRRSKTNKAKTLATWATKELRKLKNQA
# Like-named read-outs stand apart in the source and are kept apart here. Results are given in words; binding and its absence hold for the method and conditions named. In cells and extracts the contact can be indirect. Some entries that bind do so weakly or less than the wild type. For some assays here: Sequences can lack the tags named with a protein.
# B1: FUT8 (fucosyltransferase 8), endogenous in ENCCs (enzyme, UniProt Q9BYC5 1-575)
# chain: MRPWTGSWRWIMLILFAWGTLLFYIGGHLVRDNDHPDHSSRELSKILAKLERLKQQNEDLRRMAESLRIPEGPIDQGPAIGRVRVLEEQLVKAKEQIENYKKQTRNGLGKDHEILRRRIENGAKELWFFLQSELKKLKNLEGNELQRHADEFLLDLGHHERSIMTDLYYLSQTDGAGDWREKEAKDLTELVQRRITYLQNPKDCSKAKKLVCNINKGCGYGCQLHHVVYCFMIAYGTQRTLILESQNWRYATGGWETVFRPVSETCTDRSGISTGHWSGEVKDKNVQVVELPIVDSLHPRPPYLPLAVPEDLADRLVRVHGDPAVWWVSQFVKYLIRPQPWLEKEIEEATKKLGFKHPVIGVHVRRTDKVGTEAAFHPIEEYMVHVEEHFQLLARRMQVDKKRVYLATDDPSLLKEAKTKYPNYEFISDNSISWSAGLHNRYTENSLRGVILDIHFLSQADFLVCTFSSQVCRVAYEIMQTLHPDASANFHSLDDIYYFGGQNAHNQIAIYAHQPRTADEIPMEPGDIIGVAGNHWDGYSKGVNRKLGRTGLYPSYKVREKIETVKYPTYPEAEK
# B2: FUT8 tagged with FLAG and EGFP-APEX2 (PB-CAG-FLAG-FUT8-EGFP-APEX2) (enzyme, UniProt Q9BYC5 1-575)
# chain: B1 chain
# Key:
# Assay in all cases: co-IP
# [1] = biological target: L1CAM (full-length L1CAM of the co-IP in Figure 4G) (UniProt P32004)
# [2] = biological target: N-terminal FLAG-tagged L1CAM (N-L1CAM; PB-CAG-FLAG-L1CAM-HA) (UniProt P32004)
# [3] = biological target: L1CAM, endogenous in ENCCs (human (endogenous in hiPSC-derived ENCCs)) (UniProt P32004)
# [4] = biological target: N-terminal FLAG-tagged L1CAM (N-L1CAM; PB-CAG-FLAG-L1CAM-HA) (UniProt P32004); remark: listed apart in the source
molecule,measurement,setting,value
"KPNB1 (nuclear import protein, co-IP in Figure 4G) (from UniProt Q14974 1-876)",binding,[1],binds
KPNB1 (importin-β1) tagged with an N-terminal FLAG and C-terminal EGFP-APEX2 (PB-CAG-FLAG-KPNB1-EGFP-APEX2) (from UniProt Q14974 1-876),binding,[2],binds
B1,binding,[3],binds
same,binding,[4],binds
B2,binding,[3],binds
